Laboratory results as given in publication doi:10.1101/2022.08.09.503213 (bioRxiv, 2022).
Results are given in words; binding and its absence hold for the method and conditions named. Some binding calls cover weakened binding; strength is not graded here. Where a sequence is shown, tags or fusion partners need not be part of it.

Amino acid sequences for entries named in this document (tags omitted).
UniProt Q96RY7, whole entry: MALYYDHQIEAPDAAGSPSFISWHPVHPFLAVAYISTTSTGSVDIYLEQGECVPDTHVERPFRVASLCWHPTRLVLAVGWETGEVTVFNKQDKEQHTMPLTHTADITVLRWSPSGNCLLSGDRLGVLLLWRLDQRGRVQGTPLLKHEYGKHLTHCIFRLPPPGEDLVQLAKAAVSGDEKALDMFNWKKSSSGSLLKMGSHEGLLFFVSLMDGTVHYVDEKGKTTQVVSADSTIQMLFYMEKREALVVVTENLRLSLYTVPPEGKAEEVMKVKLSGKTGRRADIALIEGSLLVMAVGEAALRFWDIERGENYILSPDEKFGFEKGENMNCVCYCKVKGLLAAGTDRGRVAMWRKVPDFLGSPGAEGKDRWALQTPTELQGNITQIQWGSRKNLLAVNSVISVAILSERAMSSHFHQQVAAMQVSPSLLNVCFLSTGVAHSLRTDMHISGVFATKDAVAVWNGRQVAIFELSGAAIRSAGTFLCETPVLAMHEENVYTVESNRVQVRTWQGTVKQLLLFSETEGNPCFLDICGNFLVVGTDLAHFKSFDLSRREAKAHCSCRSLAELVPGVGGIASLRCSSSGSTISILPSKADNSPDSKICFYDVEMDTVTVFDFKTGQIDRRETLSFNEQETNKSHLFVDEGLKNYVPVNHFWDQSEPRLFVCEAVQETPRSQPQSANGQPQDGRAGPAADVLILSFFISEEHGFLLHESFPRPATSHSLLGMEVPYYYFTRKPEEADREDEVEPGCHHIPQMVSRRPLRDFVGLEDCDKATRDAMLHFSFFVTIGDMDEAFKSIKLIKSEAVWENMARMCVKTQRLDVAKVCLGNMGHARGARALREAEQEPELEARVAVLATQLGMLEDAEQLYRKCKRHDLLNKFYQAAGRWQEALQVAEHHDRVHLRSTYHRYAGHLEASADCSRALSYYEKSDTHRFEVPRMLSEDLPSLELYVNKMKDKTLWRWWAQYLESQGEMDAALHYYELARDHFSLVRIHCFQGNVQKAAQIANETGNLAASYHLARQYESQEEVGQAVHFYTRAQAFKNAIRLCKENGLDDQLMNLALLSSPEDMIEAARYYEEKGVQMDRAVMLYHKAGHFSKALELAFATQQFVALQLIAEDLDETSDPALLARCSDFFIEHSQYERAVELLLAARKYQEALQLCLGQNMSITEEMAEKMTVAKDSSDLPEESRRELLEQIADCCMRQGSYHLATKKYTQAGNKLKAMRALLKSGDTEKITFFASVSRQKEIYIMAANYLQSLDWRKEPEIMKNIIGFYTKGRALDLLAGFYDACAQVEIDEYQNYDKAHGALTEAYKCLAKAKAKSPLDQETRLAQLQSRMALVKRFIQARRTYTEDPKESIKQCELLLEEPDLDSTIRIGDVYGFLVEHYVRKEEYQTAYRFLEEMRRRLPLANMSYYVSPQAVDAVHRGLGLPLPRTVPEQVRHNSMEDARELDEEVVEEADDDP

How the values were obtained:
Assay in all cases: cryo-EM structure
[1] = target: IFT140 from ^ZZIFT140 (N-terminal ZZ-tag) (human) (UniProt Q96RY7)
[2] = target: IFT140 with C-terminal TEV site and Strep-tag II (IFT140^Strep) (human) (UniProt Q96RY7)
[3] = target: T1, IFT144 with C-terminal TEV site and FLAG tag (IFT144^FLAG) (human) (UniProt Q8NEZ3)
T1 sequence: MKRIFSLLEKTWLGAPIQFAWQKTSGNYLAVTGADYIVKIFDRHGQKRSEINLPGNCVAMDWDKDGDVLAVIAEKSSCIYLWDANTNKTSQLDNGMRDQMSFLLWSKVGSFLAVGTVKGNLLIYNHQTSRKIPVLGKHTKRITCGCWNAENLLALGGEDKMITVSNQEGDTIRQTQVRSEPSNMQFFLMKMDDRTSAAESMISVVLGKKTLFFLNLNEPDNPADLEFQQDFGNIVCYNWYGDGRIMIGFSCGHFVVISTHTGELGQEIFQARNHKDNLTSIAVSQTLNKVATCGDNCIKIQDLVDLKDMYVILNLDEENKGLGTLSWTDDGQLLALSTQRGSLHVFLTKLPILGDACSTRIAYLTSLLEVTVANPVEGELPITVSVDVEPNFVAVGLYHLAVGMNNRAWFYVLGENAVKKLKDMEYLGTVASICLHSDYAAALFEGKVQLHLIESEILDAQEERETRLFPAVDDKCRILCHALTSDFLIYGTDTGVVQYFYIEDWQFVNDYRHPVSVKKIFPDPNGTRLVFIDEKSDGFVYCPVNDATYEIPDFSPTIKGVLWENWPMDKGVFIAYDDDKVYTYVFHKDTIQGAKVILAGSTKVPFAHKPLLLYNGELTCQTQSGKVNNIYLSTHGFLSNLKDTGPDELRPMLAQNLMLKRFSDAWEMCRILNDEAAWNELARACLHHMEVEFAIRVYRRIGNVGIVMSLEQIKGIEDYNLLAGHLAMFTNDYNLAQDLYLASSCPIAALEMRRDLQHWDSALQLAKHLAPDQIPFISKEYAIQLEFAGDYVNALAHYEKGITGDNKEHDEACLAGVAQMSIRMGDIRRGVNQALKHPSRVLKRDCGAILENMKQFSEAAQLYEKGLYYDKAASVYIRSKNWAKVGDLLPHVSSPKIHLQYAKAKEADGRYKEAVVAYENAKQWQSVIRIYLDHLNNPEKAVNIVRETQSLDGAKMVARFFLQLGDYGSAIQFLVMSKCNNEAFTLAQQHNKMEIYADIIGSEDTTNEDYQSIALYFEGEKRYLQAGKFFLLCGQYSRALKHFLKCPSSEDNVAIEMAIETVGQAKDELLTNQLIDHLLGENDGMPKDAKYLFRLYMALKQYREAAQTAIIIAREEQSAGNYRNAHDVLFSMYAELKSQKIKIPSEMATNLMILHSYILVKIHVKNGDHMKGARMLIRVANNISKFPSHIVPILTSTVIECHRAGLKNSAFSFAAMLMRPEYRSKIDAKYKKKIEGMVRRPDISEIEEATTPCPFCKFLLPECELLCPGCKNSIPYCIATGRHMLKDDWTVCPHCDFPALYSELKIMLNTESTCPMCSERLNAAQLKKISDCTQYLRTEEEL

Measured: binding

B1: IFT122 (untagged) (protein, UniProt Q9HBG6 1-1241)
chain: MRAVLTWRDKAEHCINDIAFKPDGTQLILAAGSRLLVYDTSDGTLLQPLKGHKDTVYCVAYAKDGKRFASGSADKSVIIWTSKLEGILKYTHNDAIQCVSYNPITHQLASCSSSDFGLWSPEQKSVSKHKSSSKIICCSWTNDGQYLALGMFNGIISIRNKNGEEKVKIERPGGSLSPIWSICWNPSSRWESFWMNRENEDAEDVIVNRYIQEIPSTLKSAVYSSQGSEAEEEEPEEEDDSPRDDNLEERNDILAVADWGQKVSFYQLSGKQIGKDRALNFDPCCISYFTKGEYILLGGSDKQVSLFTKDGVRLGTVGEQNSWVWTCQAKPDSNYVVVGCQDGTISFYQLIFSTVHGLYKDRYAYRDSMTDVIVQHLITEQKVRIKCKELVKKIAIYRNRLAIQLPEKILIYELYSEDLSDMHYRVKEKIIKKFECNLLVVCANHIILCQEKRLQCLSFSGVKEREWQMESLIRYIKVIGGPPGREGLLVGLKNGQILKIFVDNLFAIVLLKQATAVRCLDMSASRKKLAVVDENDTCLVYDIDTKELLFQEPNANSVAWNTQCEDMLCFSGGGYLNIKASTFPVHRQKLQGFVVGYNGSKIFCLHVFSISAVEVPQSAPMYQYLDRKLFKEAYQIACLGVTDTDWRELAMEALEGLDFETAKKAFIRVQDLRYLELISSIEERKKRGETNNDLFLADVFSYQGKFHEAAKLYKRSGHENLALEMYTDLCMFEYAKDFLGSGDPKETKMLITKQADWARNIKEPKAAVEMYISAGEHVKAIEICGDHGWVDMLIDIARKLDKAEREPLLLCATYLKKLDSPGYAAETYLKMGDLKSLVQLHVETQRWDEAFALGEKHPEFKDDIYMPYAQWLAENDRFEEAQKAFHKAGRQREAVQVLEQLTNNAVAESRFNDAAYYYWMLSMQCLDIAQDPAQKDTMLGKFYHFQRLAELYHGYHAIHRHTEDPFSVHRPETLFNISRFLLHSLPKDTPSGISKVKILFTLAKQSKALGAYRLARHAYDKLRGLYIPARFQKSIELGTLTIRAKPFHDSEELVPLCYRCSTNNPLLNNLGNVCINCRQPFIFSASSYDVLHLVEFYLEEGITDEEAISLIDLEVLRPKRDDRQLEIANNSSQILRLVETKDSIGDEDPFTAKLSFEQGGSEFVPVVVSRLVLRSMSRRDVLIKRWPPPLRWQYFRSLLPDASITMCPSCFQMFHSEDYELLVLQHGCCPYCRRCKDDPGP
binds: all assays above
